Drawing on publication doi:10.1101/452904 (bioRxiv, 2018), this text covers binding for 1 molecule.

Test [1] concerns the target FLAG-tagged cTAGE5 wild-type (human). Description: co-IP.
The target in test [2] is FLAG-tagged cTAGE5 R757G (human). Nature of the test: co-IP.

No constants are given. Whether binding was seen depends on the method and setting. Binding seen in cells or lysates may run through a third protein. Binding calls can cover weak binding; strength is not graded here. Tags and fused reporters may be left off the sequences shown.

B1: HA-tagged Sec12 (protein, UniProt Q9HCU5 1-417)
chain: MGRRRAPELYRAPFPLYALQVDPSTGLLIAAGGGGAAKTGIKNGVHFLQLELINGRLSASLLHSHDTETRATMNLALAGDILAAGQDAHCQLLRFQAHQQQGNKAEKAGSKEQGPRQRKGAAPAEKKCGAETQHEGLELRVENLQAVQTDFSSDPLQKVVCFNHDNTLLATGGTDGYVRVWKVPSLEKVLEFKAHEGEIEDLALGPDGKLVTVGRDLKASVWQKDQLVTQLHWQENGPTFSSTPYRYQACRFGQVPDQPAGLRLFTVQIPHKRLRQPPPCYLTAWDGSNFLPLRTKSCGHEVVSCLDVSESGTFLGLGTVTGSVAIYIAFSLQCLYYVREAHGIVVTDVAFLPEKGRGPELLGSHETALFSVAVDSRCQLHLLPSRRSVPVWLLLLLCVGLIIVTILLLQSAFPGFL
With B1, the binding entry in test [1] and in test [2] was “binds” throughout.
